Entries after “also recorded” stand apart in the source; their conditions may differ. For at least one compound, name, drawing or mass did not settle the structure.
Target: T1, interaction between AR and ARA70 (Homo sapiens, UniProt P10275)
T1 construct: VP16 fused to the AR aa 36-918 (VP16-AR); expressed in transfected cells; host or cells: DU145
T1 sequence (P10275 36-920): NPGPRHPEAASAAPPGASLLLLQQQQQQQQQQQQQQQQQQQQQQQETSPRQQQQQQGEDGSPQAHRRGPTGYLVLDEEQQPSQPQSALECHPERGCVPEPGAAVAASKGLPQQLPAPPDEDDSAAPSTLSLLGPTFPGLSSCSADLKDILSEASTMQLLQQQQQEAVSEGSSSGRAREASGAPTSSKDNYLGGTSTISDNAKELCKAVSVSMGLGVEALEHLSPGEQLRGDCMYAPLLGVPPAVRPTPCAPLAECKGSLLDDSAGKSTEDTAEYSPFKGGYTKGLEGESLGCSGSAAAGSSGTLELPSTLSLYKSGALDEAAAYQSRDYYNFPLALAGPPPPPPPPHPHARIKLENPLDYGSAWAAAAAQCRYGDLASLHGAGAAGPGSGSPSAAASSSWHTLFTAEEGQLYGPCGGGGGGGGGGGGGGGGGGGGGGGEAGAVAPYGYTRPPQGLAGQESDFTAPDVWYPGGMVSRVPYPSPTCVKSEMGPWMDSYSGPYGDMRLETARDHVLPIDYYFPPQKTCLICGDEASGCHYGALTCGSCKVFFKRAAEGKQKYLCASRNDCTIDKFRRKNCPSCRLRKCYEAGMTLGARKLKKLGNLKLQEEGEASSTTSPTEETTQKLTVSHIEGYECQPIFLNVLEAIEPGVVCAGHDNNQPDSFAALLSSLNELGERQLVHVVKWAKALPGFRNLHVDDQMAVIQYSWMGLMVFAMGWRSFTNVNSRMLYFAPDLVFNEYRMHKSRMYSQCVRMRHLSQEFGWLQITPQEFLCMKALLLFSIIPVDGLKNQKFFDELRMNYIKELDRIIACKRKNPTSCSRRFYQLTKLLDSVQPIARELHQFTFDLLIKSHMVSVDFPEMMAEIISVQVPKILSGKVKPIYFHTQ
Assay: Mammalian two-hybrid assay GAL4-ARA70 / VP16-AR in DU145 cells (pG5CAT)
Format: cell-based
Conditions: 1 nM DHT
Excerpt: 257. […] Onate, S. A. et al., Science 270, 1354-1357 (1995); Voegel, J. J. et al., EMBO J. 15, 3667-3675 (1996); Yeh, S. et al., Proc. Natl. Acad. Sci. USA 93, 5517-5521(1996); Yeh, S. et al., Proc. Natl. Acad. Sci. USA 95, 5527-5532 (1998); Fujimoto, N. et al., J. BioI. Chem. 274, 8316-8321 (1999); Miyamoto, H. et al., Proc. Natl. Acad. Sci. USA 95 11083-11088 (1998); Kang, H. Y. et al., J. BioI. Chem. 274, 8570-8576 (1999); Yeh, S. et al., Biochem. Biophys. Res. Commun. 248, 361-367 (1998). […] Yeh, S. et al., Proc. Natl. Acad. Sci. USA 93, 5517-5521(1996); Yeh, S. et al., Proc. Natl. Acad. Sci. USA 95, 5527-5532 (1998). […] The interaction between AR and ARA70 was determined by CAT assay using pG5CAT as reporter. […] In contrast, the addition of […] between the AR and ARA70 (FIG. 4a, lane 2 vs 5 and lane 6 vs 8). Similar repression effects also occurred when we replaced ARA70 with other AR coactivators, such as ARA54 or TIF2. Kang, H. Y. et al., J. BioI. Chem. 274, 8570-8576 (1999); Voegel, J. J. et al., EMBO J. 15, 3667-3675 (1996). cAkt and dAkt, however, had very little effect on the interaction between GAL4 fused AR-LBD653-918 and VP16-ARA 70 (VP16 fused ARA70), VP16-ARA54, or VP16-TIF2.
GAL4DBD fused to ARA70 aa 176-401 (GAL4-ARA70), and VP16 fused to the AR aa 36-918 (VP16-AR) were transfected into DU145 cells in the presence or absence of cAkt, dAkt, and LY294002.

O=c1cc(N2CCOCC2)oc2c(-c3ccccc3)cccc12 [LY294002, reference compound]
Interaction between AR and ARA70 (CAT activity): further enhanced the interaction of AR and ARA70; also recorded: further enhanced the interaction between the AR and ARA70

— patent US20040235717A1, “Suppression of androgen receptor transactivation through new pathways to ar and ar coactivators and repressors” (priority 2001, published 2004)
